{"source": "patent US20210177881A1", "about": "“MEDICAMENT FOR PREVENTING AND/OR TREATING PAIN AND/OR FEVER, COMPOSITE PRODUCT AND USE THEREOF” (SHANGHAI TONGLIAN PHARMACEUTICAL CO., LTD., priority 2018, published 2021)", "test_system": "rats with tibial cancer pain", "test": "van Frey mechanical pain threshold in rats with tibial cancer pain (Walker256)", "format": "in vivo, rat", "conditions": "80 mg/kg intragastric, 12 days", "experimental": "Walker rat breast cancer cells were purchased from Shanghai Institute of Biomedical Engineering. The abdominal cavity of female Wistar rats of 70-80 g was inoculated with 1 ml of ascites tumor (about 2×10^7 cells /ml). After 7-10 days, 5 ml of ascites was extracted and centrifuged for 3 minutes (1300 rpm). After precipitation, washing was performed with 10 ml PBS, and then centrifuged and precipitated again. Then, resuspending was performed with PBS, counting was performed, the cell concentration was adjusted to 1×10^7 cells/ml by PBS and placed in an ice box for later use.\nRats were anesthetized by intraperitoneal injection of 10% chlorate hydrate (4 ml/kg body weight), a skin was prepared at the right knee joint, and the skin was disinfected with 75% alcohol. The knee joint was fixed with the left hand to make the skin on its surface tense. […]\nRats were divided into two groups: a PBS injection control group and a Walker256 model group. The radiation paw withdrawal latency (PWL) was measured before modeling as the basic pain threshold, and the PWL was measured every other day after modeling as the thermal hyperalgesia threshold. At the same time, the mechanical pain caused by von Frey filament was measured. The threshold of mechanical pain was measured before modeling as the basic pain threshold, and the threshold of mechanical allodynia was measured every other day after modeling. […]", "data": [{"smiles": "CN1CC[C@]23c4c5ccc(O)c4O[C@H]2[C@@H](O)C=C[C@H]3[C@H]1C5.Cl", "note": "[positive control, morphine hydrochloride]", "values": [{"measurement": "analgesic rate, same side", "result": 188.9, "unit": "%"}]}]}
